Results: the supplement of paper PMC12889115
Some of the results follow. These are raw signals, not scaled to a control.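 Primary screen: polymyxin B was added at a level permeabilizing Salmonella outer membranes while sparing inner membranes. DMSO wells, both with and without polymyxin B, established maximum growth. Plate-to-plate variation meant each plate was ranked on its own, and the lowest-OD600 compounds were selected as hits.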

Tested on: Salmonella enterica serovar Typhimurium SL1344
Assay: bacterial growth OD600 after 18 h with compound and polymyxin B; higher = more bacterial growth (less inhibition)
Conditions: 50 µM, Mueller-Hinton broth

**Q.** Which “bacterial growth OD600” value (polymyxin B 0.75 µg/mL) does the source give for `COC(=O)[C@@H]1CCCN1C(=O)Cc1ccc(N2CCC(NCc3cnc4ccccn34)CC2)cc1` here?
**A.** 0.866

**Q.** Which “bacterial growth OD600” value (polymyxin B 1 µg/mL) does the source give for `Cc1ccc2c(C)c(C(=O)N(C)Cc3nonc3C)oc2c1C` here?
**A.** 0.701

**Q.** For `COc1ccc2cc(CNCCc3cccc(Cl)c3)c(N3CCCC(CO)C3)nc2c1` (stereo not given), which “bacterial growth OD600” value (polymyxin B 0.75 µg/mL) is on record?
**A.** 0.737

**Q.** For `Cc1nonc1CN(C)Cc1cn(Cc2ccccc2)nc1-c1ccc2c(c1)OCO2`, which “bacterial growth OD600” value (polymyxin B 1 µg/mL) is on record?
**A.** 0.012

**Q.** With `COCCCN1C(=O)CC(CC(=O)N2CCC(Cc3ccccc3)CC2)(c2ccccc2OC)C1=O` (stereo not given) as the molecule, how does the “bacterial growth OD600” value (polymyxin B 0.75 µg/mL) read?
**A.** 0.003

**Q.** For `O=C(NCC1(c2ccccc2)CCCCC1)c1cc(CN2CCCC(O)C2)on1` (stereo not given), which “bacterial growth OD600” value (polymyxin B 0.75 µg/mL) is on record?
**A.** 0.694

**Q.** `O[C@@H]1CN(Cc2cc3ccccc3s2)CC[C@H]1N1CCN(c2ccccn2)CC1` was tested. Which “bacterial growth OD600” value (polymyxin B 1 µg/mL) did it give?
**A.** 1.01

**Q.** With `CCOC(=O)C1(CCc2ccccc2)CCN(Cc2cnn(C)c2C)CC1` as the molecule, how does the “bacterial growth OD600” value (polymyxin B 1 µg/mL) read?
**A.** 0.924

**Q.** With `COCCO[C@H]1[C@H](NC(=O)C(C)C)c2ccccc2C12CCN(C(=O)c1c(F)cccc1F)CC2` as the molecule, how does the “bacterial growth OD600” value (polymyxin B 0.75 µg/mL) read?
**A.** 0.79

**Q.** For `Cc1ccc(C(=O)N2CCC3(CCCN(Cc4ccc(F)cc4)C3)C2)cn1` (stereo not given), which “bacterial growth OD600” value (polymyxin B 1 µg/mL) is on record?
**A.** 0.91

**Q.** Which “bacterial growth OD600” value (polymyxin B 0.75 µg/mL) does the source give for `COCCN1C(=O)CC(CC(=O)N2CCN(c3ccc(C)cc3C)CC2)(c2cccc(OC)c2)C1=O` (stereo not given) here?
**A.** 0.19

**Q.** Which “bacterial growth OD600” value (polymyxin B 1 µg/mL) does the source give for `COc1ccc(-n2ncc3c2CC(C)(C)CC3NC(=O)CSc2ncccn2)cc1` (stereo not given) here?
**A.** 0.961

**Q.** `CN(Cc1cn(C)nc1-c1ccc2c(c1)OCCO2)Cc1cccc2ncccc12` was tested. Which “bacterial growth OD600” value (polymyxin B 1 µg/mL) did it give?
**A.** 0

**Q.** With `Cc1ccccc1-c1cn2c(C(=O)N(C)C(C)c3ccccn3)csc2n1` (stereo not given) as the molecule, how does the “bacterial growth OD600” value (polymyxin B 1 µg/mL) read?
**A.** 1.15

**Q.** For `O=C(CCC1CCCN(C2CCSCC2)C1)Nc1ccccc1F` (stereo not given), which “bacterial growth OD600” value (polymyxin B 1 µg/mL) is on record?
**A.** 0.853

**Q.** Which “bacterial growth OD600” value (polymyxin B 1 µg/mL) does the source give for `O=C(CCC1CCN(Cc2cccn2-c2nccs2)CC1)NCc1cccnc1` here?
**A.** 0.95

**Q.** For `COc1ccc(CCC2CCCN(C(=O)c3cc(C)nc(C)n3)C2)cc1` (stereo not given), which “bacterial growth OD600” value (polymyxin B 0.75 µg/mL) is on record?
**A.** 0.821

**Q.** With `COCc1ccc(C(=O)NCc2c(C)ncc3c2CCN(C(=O)c2ccc(OC)c(F)c2)C3)o1` as the molecule, how does the “bacterial growth OD600” value (polymyxin B 0.75 µg/mL) read?
**A.** 0.866

**Q.** With `COCC(=O)Nc1cc(C(=O)N2CCN(c3ccccc3)CC2)cc2ncn(CCc3ccccc3)c12` as the molecule, how does the “bacterial growth OD600” value (polymyxin B 0.75 µg/mL) read?
**A.** 0.802

**Q.** For `CCNC(=O)NC(C)c1cnc(N(C)C2CCCCC2)nc1C` (stereo not given), which “bacterial growth OD600” value (polymyxin B 0.75 µg/mL) is on record?
**A.** 0.848

**Q.** `O=C(CCC1CCN(C(=O)c2ccc3c(c2)OCO3)CC1)NCc1cccnc1` was tested. Which “bacterial growth OD600” value (polymyxin B 1 µg/mL) did it give?
**A.** 0.993

**Q.** Which “bacterial growth OD600” value (polymyxin B 0.75 µg/mL) does the source give for `COc1ccc(F)c(CC2(CCC(=O)N3CCCCC3c3ccccn3)CCC(=O)N2)c1` (stereo not given) here?
**A.** 0.824

**Q.** With `O=C1CC[C@@H](CN(Cc2ccccc2)C(=O)c2cc(C(c3ccccc3)c3ccccc3)no2)N1` as the molecule, how does the “bacterial growth OD600” value (polymyxin B 0.75 µg/mL) read?
**A.** 0

**Q.** How did the “bacterial growth OD600” value (polymyxin B 1 µg/mL) turn out when `CC(C)CCCC1CN(C(=O)CN2CCCC2=O)CCO1` (stereo not given) was run?
**A.** 0.971

**Q.** How did the “bacterial growth OD600” value (polymyxin B 0.75 µg/mL) turn out when `COCCC1CCCCN1C(=O)c1cc(NC(=O)C2CCCCC2)cc2ncn(CCOC)c12` (stereo not given) was run?
**A.** 0.935

**Q.** With `COC(=O)CCNC(=O)c1cc(Cl)ccc1OC1CCN(C(C)=O)CC1` as the molecule, how does the “bacterial growth OD600” value (polymyxin B 1 µg/mL) read?
**A.** 0.98

**Q.** Which “bacterial growth OD600” value (polymyxin B 0.75 µg/mL) does the source give for `Cc1oc(-c2cc(F)cc(F)c2)nc1CN1CCOCC1` here?
**A.** 0.808

**Q.** Which “bacterial growth OD600” value (polymyxin B 1 µg/mL) does the source give for `CC(C)N(CC1CCC(=O)N1)C(=O)c1ccc2oc(CCCc3ccccc3)nc2c1` (stereo not given) here?
**A.** 0.999

**Q.** Which “bacterial growth OD600” value (polymyxin B 1 µg/mL) does the source give for `CN(C)S(=O)(=O)N1CCC2(CCCN(CC3CCCCC3)C2=O)C1` (stereo not given) here?
**A.** 0.604

**Q.** `CC(O)(COc1ccccc1)c1ccc2c(c1)CN(Cc1ccc(F)cc1)CCO2` (stereo not given) was tested. Which “bacterial growth OD600” value (polymyxin B 0.75 µg/mL) did it give?
**A.** 0.007
